Results: US5744451A, “N-substituted glutamic acid derivatives with interleukin-1 β converting enzyme inhibitory activity” (Warner-Lambert Company, priority 1996, dated 1998)
Not every detail of the peptide structures is certain; ends, links or a residue may be inferred. Residues, ends and D or L forms follow the SMILES beside them.

Tested on: IL-1β production in human peripheral blood mononuclear cells (PBMCs)
Experiment: Inhibition of IL-1β production in LPS-stimulated human PBMCs (ELISA)
Type: cell-based
Details: compound at 100 μM, 10 ng/mL LPS overnight

Row | Structure (SMILES) | inhibition of production of mature IL-1β relative to control PBMCs treated with LPS alone
1 | CC(=O)N[C@@H](Cc1ccc(O)cc1)C(=O)N[C@H](C(=O)N[C@@H](C)C(=O)N[C@H](C=O)CC(=O)O)C(C)C [Ac-Tyr-Val-Ala-Asp[CHO], reference compound] | 90%
2 | CC(=O)N[C@@H](Cc1ccc(O)cc1)C(=O)N[C@H](C(=O)N[C@@H](C)C(=O)N[C@H](C=O)CCC(=O)O)C(C)C [Ac-Tyr-Val-Ala-Glu[CHO]] (Ac-YVAE-aldehyde) | 90%
